Results are given as percent effect. The record does not define 0% and 100%; most values in the screen are far below 50% and negative numbers occur (in some assays of this library far below -100). Compounds were drawn at random from those tested, without regard to their results. Two or more numbers in one place are separate tests of the same structure; such repeats can differ widely. A dash means the value is not listed here; it may have been measured.

Protein sequences, listed by entry. Tags and fused reporters are not part of them.
UniProt P9WNZ1, whole entry: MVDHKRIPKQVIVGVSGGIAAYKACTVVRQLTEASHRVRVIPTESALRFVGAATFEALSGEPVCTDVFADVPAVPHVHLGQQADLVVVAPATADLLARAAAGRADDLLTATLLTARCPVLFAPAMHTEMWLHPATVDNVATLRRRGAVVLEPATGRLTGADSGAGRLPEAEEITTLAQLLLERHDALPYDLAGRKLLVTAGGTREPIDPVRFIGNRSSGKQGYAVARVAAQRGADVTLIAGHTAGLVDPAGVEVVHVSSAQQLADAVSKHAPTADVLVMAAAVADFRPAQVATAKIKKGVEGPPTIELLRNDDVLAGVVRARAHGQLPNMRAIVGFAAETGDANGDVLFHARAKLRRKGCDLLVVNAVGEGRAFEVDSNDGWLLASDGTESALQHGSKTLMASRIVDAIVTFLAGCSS

Leishmania in macrophages: 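Cell assay of Leishmania donovani living inside macrophages; the read-out is not stated. Concentration: 30 µM. Direction is inferred from retests: higher values go with stronger inhibition. Of about 69,000 compounds tested this way, about 1,000 (1.5%) reached 50% or more in at least one test.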
CoaBC: 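Coenzyme A biosynthesis protein CoaBC, Mycobacterium tuberculosis (UniProt P9WNZ1). Enzyme assay of CoaBC with a phosphate dye (Biomol Green) read at 650 nm. Tested at 30 µM. Direction is inferred from only a few compounds that gave an IC50; most scored high, so higher reads as stronger inhibition. Most strong results did not repeat in a second test. Of about 67,000 compounds tested this way, about 40 (0.06%) reached 50% or more in at least one test.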

SMILES	Leishmania in macrophages	CoaBC
O=C1NC(c2ccccc2)=N[C@@]12CC[C@@H]1CN(Cc3ccccc3)C[C@@H]12	-	3.173
[H][C@]12CC[C@]([H])(CN(C(=O)c3cccnc3)C1)N(Cc1cc(C)ccc1C)C2	-0.3375	-
CC(C)NC(=O)NCc1ccc(C(=O)NC(C)Cn2cccn2)cc1 (stereo not drawn)	4.66	4.178
CCCNC(=O)c1cc2c([nH]c1=O)CC(c1cccs1)CC2=O (stereo not drawn)	14.76	10.63
CS(=O)(=O)NCCN1CCCC1c1ccc(Cl)cc1 (stereo not drawn)	10.09	2.625
Cc1nn(CCO)c(C)c1-c1cc(C(C)(C)C)nc(N)c1C#N	4.778	0.8872
NCc1n[nH]c(=O)n1-c1ccccc1Oc1ccccc1	11.53	0.7353
[H][C@]12CCCCN1CCC[C@@]2(O)Cn1cnc2cc(C)c(C)cc21	45.81	-
CNC(C(=O)OC)c1cc(F)ccc1F.Cl (stereo not drawn)	20.28	-
CN1CCN(C2COC3(CCN(Cc4ccc(F)cc4)CC3)C2)CC1 (stereo not drawn)	-	3.75
CN(C)CC(=O)N1CC2(CCN(Cc3ccccc3)C2)C1	5.422	4.762
CC(C)c1n[nH]c(C(=O)Nc2ccncc2)c1Br	62.71	1.799
Cc1cc(C)c(C#N)c(N2CCC3(CCCN(CCO)C3=O)C2)n1 (stereo not drawn)	-39.61	1.882
CN(C)CCOCc1nnc2n1CCN(Cc1ccsc1)C2.O=C(O)C(F)(F)F.O=C(O)C(F)(F)F	3.659	-
Cc1nnc(CSc2ccccn2)o1	3.004	4.752
COc1ccccc1[C@@H]1CN(C(=O)c2csc(C)n2)C[C@H]1C(=O)O	11.06	2.532
Cn1cc(CN2CC[C@H]3[C@H]2CC(=O)N3Cc2ccncc2)cn1	-	7.059
[H][C@@]12CS(=O)(=O)C[C@]1([H])N(Cc1cc(Cl)cc(Cl)c1)CCN2CCC	-4.483	-
CCC(C(=O)NC(C)(C)C)n1cccc(OC)c1=O (stereo not drawn)	38.61	-0.9153
Cc1cc(C)c2c(N3CCCN(C(=O)C4CCC4)CC3)ncnc2n1	3.804	-7.107
CCc1noc(C(C)N2CCN(Cc3nc(C)c(C)o3)CC2)n1 (stereo not drawn)	-9.733	2.394
Cc1ncsc1-c1nnc(C2CCN(Cc3cccc(F)c3F)CC2)o1	-39.02 and 12.18	-1.699
COCC(=O)N1CCC2(C1)c1ccccc1S(=O)(=O)N2C (stereo not drawn)	-3.923	1.463
O=C(C1=CC2(CCN(CCO)CC2)c2ccccc21)N1CCCC1.O=C(O)C(F)(F)F	16.82	-
COc1ccc2c(c1)nc1n2[C@@H](CNCc2cnn(C)c2)COC1	27.36	-3.386
CCc1nnc2n1CCN(C(C(=O)NC1CC1)c1ccccc1)C2 (stereo not drawn)	-9.712	5.789
O=C(COC1CCCCC1)Nc1ccn(Cc2ccccn2)n1	17.65	-8.765
c1cncc(N2CCCn3nnc(COCC4CC4)c3C2)c1	-	5.939
O=C(c1ccccc1)N1CCO[C@@H]2CN(Cc3ccc[nH]3)C[C@@H]2C1	-	2.963
Cn1nccc1C(=O)N1CCC(n2cc(-c3ccsc3)nn2)CC1	-4.822	-1.107
Cc1cc(N2CCC(Cc3ccccc3)CC2)ncn1	13.86	-3.385
Cn1cc(C[C@H]2[C@H](O)CCN2CC2CCOCC2)cn1.O=C(O)C(F)(F)F	0.2217	-
CCc1ncc2c(n1)CN(Cc1nnc(C)o1)CC2	2.577	-7.889
CC1=Nc2c(c(O)nn2C2CCOCC2)C(c2cccnc2)S1 (stereo not drawn)	-46.14	-2.309
Cn1cc(CNC2CC3(CCN(S(C)(=O)=O)CC3)c3ccccc32)cn1 (stereo not drawn)	-	4.579
CCn1cc(-c2cc(C(=O)N3CCOCC3)c3cc(Cl)ccc3n2)cn1	11.66	-31.16
COc1ccc(C(C)NCCC(N)=O)cc1F (stereo not drawn)	52.68	7.767
O=C(c1ccsc1)N1CCc2c(CNc3ncccn3)n[nH]c2C1	19.42	4.442
Cc1n[nH]c(C)c1-c1c(C#N)c(N)nc2c1CCc1[nH]ccc1-2	20.56	23.5 and 15.87
COC1CCN(Cc2csc(C(C)C)n2)CC1	-2.12	5.832
O=C1NCC2=C1C(c1ccc(O)cc1)Nc1ccccc1N2 (stereo not drawn)	17.78	-0.2165
CC(Cn1cccn1)NCc1nc(-c2ccc3c(c2)OCO3)no1 (stereo not drawn)	-13.5	8.652

The first 3 entries again:

- O=C1NC(c2ccccc2)=N[C@@]12CC[C@@H]1CN(Cc3ccccc3)C[C@@H]12 | CoaBC: 3.173%
- [H][C@]12CC[C@]([H])(CN(C(=O)c3cccnc3)C1)N(Cc1cc(C)ccc1C)C2 | Leishmania in macrophages: -0.3375%
- CC(C)NC(=O)NCc1ccc(C(=O)NC(C)Cn2cccn2)cc1 (stereo not drawn) | Leishmania in macrophages: 4.66%; CoaBC: 4.178%

Data taken from ChEMBL document CHEMBL3988442, “University of Dundee, Small-Polar-MMV Screening Library” (2021).